Results deposited as PubChem BioAssay AID602196 (INSERM, 2012)

Screen: 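Modifiers of cisplatin sensitivity in A549 cells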
System: human A549 lung cancer cells
Reagent: siRNA pair against human genes
Time to read-out: 48 h transfection before cisplatin; time from cisplatin to read-out not stated
Conditions: cisplatin at a dose killing half of control-siRNA cells; exact dose and duration not given
Detection: 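Shift in cisplatin death relative to control siRNA, from -50 (all cells die) to +50 (no cells die); siRNAs harmful on their own scored 0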
Reading the numbers: two-siRNA summed score (-2 to +2): higher = both siRNAs protect from cisplatin killing; -2 means both sensitise; mean protection from cisplatin (shift in death) and protection from cisplatin (shift in death), siRNA C and protection from cisplatin (shift in death), siRNA D: higher = protection from cisplatin killing
Active means: 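Each siRNA scores 0 if harmful alone by LDH or WST-1, otherwise +1 if it reduces and -1 if it increases cisplatin killing; a gene is active when both siRNAs agree (sum +2 or -2)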
Meaning of the calls: active = both siRNAs shift cisplatin killing the same way; inactive = no consistent shift, or siRNA harmful alone
The deposit covers about 23,000 reagents; below is a random part of them. Over the whole deposit, 455 (2%) are marked active. 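Active includes both protection and sensitisation; some change values fall well beyond the stated -50 to +50 range.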 Reagents against one gene are numbered here. Not given: the amount of reagent.

| gene | reagent no. | two-siRNA summed score (-2 to +2) | mean protection from cisplatin (shift in death) (%) | protection from cisplatin (shift in death), siRNA C (%) | protection from cisplatin (shift in death), siRNA D (%) | Outcome |
| --- | --- | --- | --- | --- | --- | --- |
| LOC388477 | 1 | 0 | -0.3 | -1.8 | 1.2 | inactive |
| CAPN11 | 1 | 0 | 3.4 | 1.8 | 5 | inactive |
| HDAC5 | 1 | 0 | 2.4 | 3.4 | 1.5 | inactive |
| NUP43 | 1 | 1 | 15 | 14 | 16.1 | inactive |
| LOC400464 | 1 | 0 | 6.6 | 3.9 | 9.2 | inactive |
| FBXO38 | 1 | 1 | 16.4 | 18.1 | 14.7 | inactive |
| LAT | 1 | 0 | -19.6 | -15.6 | -23.7 | inactive |
| HMGCL | 1 | 0 | 6.1 | 14.2 | -2.1 | inactive |
| CCDC3 | 1 | -1 | -8.7 | -15.7 | -1.8 | inactive |
| LOC441531 | 1 | 1 | 6.3 | -2 | 14.6 | inactive |
| CMTM6 | 1 | 0 | 4.3 | 1.4 | 7.1 | inactive |
| PIK3IP1 | 1 | 0 | -3.2 | -5.7 | -0.7 | inactive |
| KEAP1 | 1 | 0 | 25.7 | 7.5 | 44 | inactive |
| PCDH8 | 1 | 0 | 4.4 | 2.8 | 6 | inactive |
| ZNF703 | 1 | 0 | 2.1 | 5.2 | -1 | inactive |
| PLCG2 | 1 | -1 | -2 | -20 | 16.1 | inactive |
| CCDC150 | 1 | 0 | 8.1 | 9.9 | 6.2 | inactive |
| CCDC150 | 2 | 1 | 24.2 | 19.6 | 28.8 | inactive |
| LOC285429 | 1 | 0 | -2.5 | -10.7 | 5.7 | inactive |
| OR51I1 | 1 | 0 | -0.3 | 5.1 | -5.7 | inactive |
| ARHGEF6 | 1 | -1 | -4.3 | -12.9 | 4.2 | inactive |
| NACC2 | 1 | 0 | -4.2 | 12.4 | -20.8 | inactive |
| OR6K6 | 1 | 0 | 12.9 | 1.5 | 24.3 | inactive |

4 successive reagents from above, quoted:
| gene | reagent no. | two-siRNA summed score (-2 to +2) | mean protection from cisplatin (shift in death) (%) | protection from cisplatin (shift in death), siRNA C (%) | protection from cisplatin (shift in death), siRNA D (%) | Outcome |
| --- | --- | --- | --- | --- | --- | --- |
| HMGCL | 1 | 0 | 6.1 | 14.2 | -2.1 | inactive |
| CCDC3 | 1 | -1 | -8.7 | -15.7 | -1.8 | inactive |
| LOC441531 | 1 | 1 | 6.3 | -2 | 14.6 | inactive |
| CMTM6 | 1 | 0 | 4.3 | 1.4 | 7.1 | inactive |
